# Screening data, single-dose tests

Chains of the proteins cited; added tags and fusions are not shown. Residues count along the entry.
UniProt Q4DA54, 1-478: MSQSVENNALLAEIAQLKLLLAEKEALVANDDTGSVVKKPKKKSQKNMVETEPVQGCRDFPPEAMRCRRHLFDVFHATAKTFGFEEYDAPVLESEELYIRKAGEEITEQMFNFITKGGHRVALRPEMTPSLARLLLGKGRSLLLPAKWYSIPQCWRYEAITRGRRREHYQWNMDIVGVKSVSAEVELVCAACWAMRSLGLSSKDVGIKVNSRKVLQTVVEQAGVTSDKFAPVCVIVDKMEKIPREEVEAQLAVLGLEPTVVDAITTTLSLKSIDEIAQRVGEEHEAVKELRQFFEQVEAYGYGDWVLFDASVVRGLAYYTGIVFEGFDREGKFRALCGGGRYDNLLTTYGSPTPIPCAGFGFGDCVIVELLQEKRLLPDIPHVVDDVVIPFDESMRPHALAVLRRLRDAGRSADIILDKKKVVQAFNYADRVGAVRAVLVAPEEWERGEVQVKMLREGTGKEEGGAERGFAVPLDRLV

Source: ChEMBL document CHEMBL3988442, “University of Dundee, Small-Polar-MMV Screening Library” (2021).

Toxoplasma: 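Assay of Toxoplasma gondii numbers, read through their beta-galactosidase reporter with a colour substrate. Concentration: 10 µM. The record gives no direction; the compounds picked for IC50 retests had high values, so higher reads as fewer parasites. Size under these conditions: about 67,000 compounds, about 260 of them at 50% or above in at least one test.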
TcHisRS: 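Histidine-tRNA ligase, Trypanosoma cruzi CL Brener (UniProt Q4DA54). Enzyme assay of histidyl-tRNA synthetase; the read-out is not stated. Concentration: 30 µM. The record gives no direction; compounds that gave an IC50 in retests scored well above the rest, so higher reads as stronger inhibition. About 69,000 compounds were tested under these conditions; 0.045% (about 31) showed 50% or more at least once.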

The filed quantity is “Percent Effect” (%).
How 0% and 100% were set is not recorded. Most values in the screen are low, and negative values occur.
The compounds are a random part of those screened.
A dash means the value is not listed here; it may have been measured.

| Compound | Toxoplasma | TcHisRS |
|---|---|---|
| `Cc1cc(N2CCN(C(=O)c3cc(Cl)c[nH]3)CC2)nc(C)n1` | 12.94 | 6.122 |
| `Nc1nc(NCCO)cc(N2CCc3c([nH]c4ccccc34)C2)n1` | -9.144 | 15.42 |
| `Cc1cc(N2CCN(Cc3ccccc3)CC(O)C2)cc(C)n1` (stereo not drawn) | -10.04 | 4.167 |
| `OC1(CNc2ccc(F)cc2)CCNCC1` | 3.684 | 13.54 |
| `CCOCC(O)CN1CCN(C(=O)c2cc(F)ccc2C)CC1` (stereo not drawn) | -2.329 | 0 |
| `CCc1nnc(CN2CCOC(Cn3cc(C)cn3)C2)o1` (stereo not drawn) | -5.187 | 4.046 |
| `Cc1ccc(C(CNCc2c[nH]nc2C)N(C)C)cc1.Cl` (stereo not drawn) | 12.56 | - |
| `Cc1cnccc1CN(C)Cc1c[nH]nc1-c1ccc(F)cc1F` | -8.945 | 6.358 |
| `Cc1ccc(N2CC[C@H]3OCC[C@@]3(C(=O)N3CCCO3)C2)nn1` | - | 7 |
| `O=C(O)C(F)(F)F.[H][C@@]12CN(CC3CC3)C[C@]1([H])C(=O)N(Cc1cccc(F)c1)C2` | -0.8069 | - |
| `O=C(O)C(F)(F)F.[H][C@@]12CN(CC3CC3)C[C@]1([H])[C@@H](OC)CCN2C(=O)Cc1ccsc1` | 3.957 | - |
| `O=C(NCCc1ccc(Cl)s1)N1CCS(=O)(=O)CC1` | 3.012 | 1.127 |
| `CNC(=O)COC1COC2(CCN(c3cnccn3)CC2)C1` (stereo not drawn) | - | 3.226 |
| `O=C(c1ccccn1)N1CCC2(CCCN(c3nncs3)C2)C1` (stereo not drawn) | - | 5.155 |
| `CC(=O)N1CCC(N2CCN3C(=O)N(c4ccccc4)C[C@H]3C2)CC1` | - | 5.941 |
| `Cc1nc(-c2ccccc2)c(C(=O)N2CCC3(CC(=O)NC3=O)C2)s1` (stereo not drawn) | 6.397 | -1.667 |
| `CC(C)c1ncncc1C(=O)N1CCN(Cc2ccccn2)CC1` | -4.272 | 5.202 |
| `COc1cccc(F)c1C(C)NC(=O)NCc1cc(C(C)C)no1` (stereo not drawn) | -3.64 | 3.704 |
| `CNc1cccc(C2CCN(C(C)=O)CC2)n1` | 12.95 | 8.812 |
| `CC(C)n1nc2c(cc1=O)CN(CC(=O)N(C)c1nccs1)CC2` | 8.612 | 12.94 |
| `CCOc1ccc(NC(C)=O)cc1S(=O)(=O)Nc1cc(C)on1` | -0.9278 | 3.627 |
| `CNCC(=O)N1CCCC(c2nccnc2Oc2cccc(F)c2)C1` (stereo not drawn) | - | 0.5464 |
| `COc1ccc(OC)c(CN2CCc3nc4ccsc4c(=O)n3CC2)c1` | - | -0.7491 |
| `O=C(NCc1cccnc1)N[C@H]1CC[C@@]2(CCC(=O)N2CC2CC2)CC1.O=C(O)C(F)(F)F` | -7.572 | - |
| `COCC(=O)Nc1cnc(N2CCN(c3ccccc3)CC2)nc1` | -11.8 | 0.4878 |
| `C[C@H]1C(=O)NC[C@H]2CN(CCc3ccccc3)C[C@H]21` | - | 1.442 |
| `COc1ccc(CN2CCC3(CC2)CCN(c2cnn(C)c2)C3=O)cc1.O=C(O)C(F)(F)F` | -7.118 | - |
| `Cc1nc(C)n(CC2CN(CC(=O)Nc3cccnc3)CCO2)n1` (stereo not drawn) | -8.433 | 1.626 |
| `COCC1COCCC12CCN(Cc1nccs1)CC2` (stereo not drawn) | - | 3.333 |
| `c1ccc(CO[C@H]2CO[C@@]3(CCN(Cc4ccoc4)C3)C2)nc1` | - | 0.5464 |
| `COC1CCN(C(=O)c2ccccc2NCc2cccnc2)CC1` | 16.66 | 4 |
| `CCC(C(=O)N1CCS(=O)(=O)CC1)n1cccn1` (stereo not drawn) | 17.46 | 1.754 |
| `CC1Oc2ccc(S(=O)(=O)NCCCn3ccnc3)cc2NC1=O` (stereo not drawn) | -4.701 | 2.809 |
| `CCn1nc2c(cc1=O)CN(Cc1nc(-c3ccoc3)no1)CC2` | -1.953 | 9.239 |
| `O=C(Nc1ccccc1CCc1ccccn1)NC1CCOCC1` | -0.2157 | 5.732 |
| `CCn1nc(C)c2nc(C(C)C)nc(N3CCCC3)c21` | 14.38 | 1.754 |
| `CCn1cnnc1CNC(=O)N1CCC(Cc2cccnc2)CC1` | -25.34 | 1.887 |
| `O=C(O)C(F)(F)F.c1cnc(NCc2nnn3c2CN(Cc2ccco2)CCC3)nc1` | -0.8097 | - |
| `CS(=O)(=O)N[C@@H]1CN(C(=O)c2cc3ccccc3s2)C[C@H]1O` | -12.73 | 7.143 |
| `COc1c(C)cnc(CN2CCCC(c3noc(C4CC4)n3)C2)c1C` (stereo not drawn) | -3.672 | -1.657 |
| `O=C(O)C(F)(F)F.O=C(O)C(F)(F)F.O=C(O)C(F)(F)F.c1ccc(Cn2cc3c(n2)C(CNCc2ccco2)OCC3)nc1` (stereo not drawn) | -0.9784 | - |
| `Cc1cc(CN(C)C(=O)NC2CCN(Cc3ccccc3)C2)no1` (stereo not drawn) | 7.904 | 0.3802 |
| `CN(Cc1cccc2cnccc12)C(=O)CCc1n[nH]c2c1CCCC2` | 3.583 | 2.488 |
| `O=C(NCCn1cnc(C2CCCC2)cc1=O)c1ccc(=O)[nH]n1` | -2.574 | 2.062 |
| `COc1ccccc1C(=O)NCc1n[nH]c(C)n1` | 6.095 | 0 |
| `O=C(c1ccc(F)cc1)N1CCC2(CC1)CC(N1CCOCC1)C2` | - | 7.212 |
| `CCc1nc(CN2CCCN(C(=O)Cc3cccs3)CC2)cs1` | -0.8937 | 2.41 |
| `O=C(NCc1cc(F)cc(Br)c1)C1(O)CCSCC1` | 2.02 | 6.077 |
| `Cc1csc(C(=O)NCCN2CCC(c3cccs3)CC2)c1` | 11.84 | 10.55 |
| `Cc1nnc2n1CCN(C(=O)c1cc(Cl)c[nH]1)C2` | -6.21 | -0.3802 |
| `Clc1cnccc1NCc1cccc(COC2CCOCC2)c1` | 18.33 | 3.665 |
| `CC1CCN(CCCNS(=O)(=O)c2cc(F)cc(F)c2)CC1` | - | 12.5 |
| `Cc1cc(F)c(S(=O)(=O)NCC(C)(C)N)cc1F.Cl` | 2.195 | - |
| `COc1ccc(CNc2c(C)cnc3c2c(=O)n(C)c(=O)n3C)cc1` | -13.85 | -1.205 |
| `CCC(CO)N(Cc1cccc(-n2cccn2)c1)Cc1ccccn1` (stereo not drawn) | 9.694 | -27.27 |
| `Cc1ncsc1CN1CC[C@H]2C(=O)N(c3ccccc3)CCO[C@H]2C1` | - | 2.732 |
| `Cc1nn(C)c(C)c1CN(C)C(=O)C1COc2ccccc2C1` (stereo not drawn) | 15.09 | 0.5405 |
| `CC(Oc1ccccc1C(F)(F)F)C(=O)NCCCC(N)=O` (stereo not drawn) | 10.35 | 1.031 |

For reference, 3 entries once more:

Compound,Toxoplasma,TcHisRS
c1ccc(CO[C@H]2CO[C@@]3(CCN(Cc4ccoc4)C3)C2)nc1,-,0.5464
COCC(=O)Nc1cnc(N2CCN(c3ccccc3)CC2)nc1,-11.8,0.4878
Cc1nnc2n1CCN(C(=O)c1cc(Cl)c[nH]1)C2,-6.21,-0.3802